The record followed here is PubChem BioAssay AID330 (DTP/NCI, 2004).

The list does not hold the whole screen: it gathers tests that were run many times, whatever their T/C, doses with no T/C, and many T/C values between a quarter and a half above the control. Other doses and runs of a compound stand elsewhere. T/C is the treated group as % of the vehicle group. Some doses have a count of surviving animals in place of a T/C: the source holds a T/C of zero for them, seemingly a mark for toxic or unscored doses. Some survivor counts are full or nearly so, which does not show that the dose was tolerated: the source hardly ever lists a survival T/C far under the control, and the zero likely stands for such cases as well. Survivors were counted at the toxicity check, usually on the fifth day, unless a day is given; later deaths do not show. Schedules are NCI's codes, read here as Q, the interval in days (D) or hours (H), X, the number of doses. Some molecules as drawn cover several salts, stereoisomers or complexes of the source; a dose is that of the sample tested. Some entries hold several experiments; their values stand side by side, smallest first. Where survival is the endpoint, this PubChem deposit counts one and a half times the control or more as active, and values a quarter to a half above the control carry no call in these data; other NCI protocols may use other cut-offs. Some T/C values are followed by the survivors on the day toxicity was checked, most often the fifth; without a count, all were alive then.

The subject of the test is P388 leukemia ip, CD2F1 mice, survival T/C. Briefly: NCI In Vivo Anticancer Drug Screen. Data for tumor model P388 Leukemia (intraperitoneal) in CD2F1 (CDF1) mice. Particulars: T/C endpoint: median survival time, higher T/C = longer survival.
Setting [1] is: dose: 100.0 mg/kg/injection, schedule: Q01DX009 (ip), vehicle: saline with Tween-80.
Where [2] appears, read: dose: 200.0 mg/kg/injection, schedule: Q01DX009 (ip), vehicle: saline with Tween-80.
Where [3] appears, read: dose: 50.0 mg/kg/injection, schedule: Q01DX005 (ip), vehicle: saline with Tween-80.
Where [4] appears, read: dose: 100.0 mg/kg/injection, schedule: Q01DX009 (ip), vehicle: saline.
[5] abbreviates: dose: 200.0 mg/kg/injection, schedule: Q01DX009 (ip), vehicle: saline.
[6] abbreviates: dose: 50.0 mg/kg/injection, schedule: Q01DX009 (ip), vehicle: Klucel (hydroxypropylcellulose) (HPC).
[7] abbreviates: dose: 200.0 mg/kg/injection, schedule: Q04DX002 (ip), vehicle: saline with Tween-80.
Setting [8] is: dose: 400.0 mg/kg/injection, schedule: Q04DX002 (ip), vehicle: saline with Tween-80.

Consider `CCC(=N)C(c1ccccc1)(c1ccccc1)C(C)CN(C)C` (stereo not drawn), for which the survivor count is on record as 2 of 6 (dose: 60.0 mg/kg/injection, schedule: Q01DX005 (ip), vehicle: saline); 0 of 6 (dose: 120.0 mg/kg/injection, schedule: Q01DX005 (ip), vehicle: saline); 0 of 6 (dose: 240.0 mg/kg/injection, schedule: Q01DX005 (ip), vehicle: saline).
Take `CC1(O)CC[N+](C)(C)CC1c1ccccc1` (stereo not drawn): the survivor count (dose: 200.0 mg/kg/injection, schedule: Q04DX003 (ip), vehicle: saline) is 0 of 6.
With `O=C1C=CC(=Nc2ccc3[nH]c4ccccc4c3c2)C=C1`, for the setting “dose: 400.0 mg/kg/injection, schedule: Q01DX005 (ip), vehicle: saline with Tween-80”, the survivor count was 2 of 6.
On to `c1cc2[nH]c3ccncc3c2cn1`, for which the survivor count by setting is: under setting [1], 0 of 6; under setting [2], 0 of 6.
For the compound `CCN(CC)CCN=c1nc(/C=C\C=C\NN(C)C(=S)SC)c(C)nn1C`, the survivor count is, setting by setting: under setting [3], 5 of 5; (dose: 100.0 mg/kg/injection, schedule: Q01DX005 (ip), vehicle: saline with Tween-80) 5 of 5.
For the compound `O=C(O)CCCCCCCCCc1ccccc1`, the survivor count under setting [4] is 6 of 6 and the survivor count under setting [5] was 6 of 6.
Take `C[n+]1ccc2ccccc2c1C#N`: the survivor count (dose: 50.0 mg/kg/injection, schedule: Q04DX003 (ip), vehicle: saline) is given as 4 of 6.
As to `CCc1ccc2c(c1)C(=O)c1c(c(-c3ccccc3)c3ccccc3c1-c1ccccc1)C2=O`, the survivor count reads like this: (dose: 12.5 mg/kg/injection, schedule: Q01DX005 (ip), vehicle: saline with Tween-80) 5 of 5; (dose: 25.0 mg/kg/injection, schedule: Q01DX005 (ip), vehicle: saline with Tween-80) 5 of 5; under setting [3], 5 of 5.
On to `CCCCCCC(=O)/C=C/c1cc(Cl)cc(Cl)c1OCOC`, for which, under setting [6], the survivor count is listed as 6 of 6.
Turning to `CC1(C)N=C(N)N=C(N)N1c1ccc(OCC(=O)N2CCOCC2)c(Cl)c1`, the survivor count is 6 of 6 (dose: 6.25 mg/kg/injection, schedule: Q01DX009 (ip), vehicle: saline); 6 of 6 (dose: 12.5 mg/kg/injection, schedule: Q01DX009 (ip), vehicle: saline); 6 of 6 (dose: 25.0 mg/kg/injection, schedule: Q01DX009 (ip), vehicle: saline); 5 of 6 (dose: 50.0 mg/kg/injection, schedule: Q01DX009 (ip), vehicle: saline); 6 of 6 under setting [4]; 0 of 6 and 1 of 6 under setting [5]. The survivor count reads like this: (dose: 200.0 mg/kg/injection, schedule: Q04DX003 (ip), vehicle: saline sonified) 3 of 6; (dose: 400.0 mg/kg/injection, schedule: Q04DX003 (ip), vehicle: saline sonified) 1 of 6. Moreover, the T/C (dose: 66.0 mg/kg/injection, schedule: Q01DX009 (ip), vehicle: saline sonified) was 130 % of control; the T/C (dose: 100.0 mg/kg/injection, schedule: Q01DX009 (ip), vehicle: saline sonified) is 130 % of control; the T/C (dose: 150.0 mg/kg/injection, schedule: Q01DX009 (ip), vehicle: saline sonified) is 130 % of control.
For `CN1CCN(CN2C(=O)C3C4C=CC(C3C2=O)C2C3C(=O)N(CN5CCN(C)CC5)C(=O)C3C42)CC1` (stereo not drawn), the T/C reads like this: (dose: 41.3 mg/kg/injection, schedule: Q01DX009 (ip), vehicle: water) 130 % of control; (dose: 44.6 mg/kg/injection, schedule: Q01DX009 (ip), vehicle: water) 146 % of control; (dose: 50.0 mg/kg/injection, schedule: Q01DX009 (ip), vehicle: water) 125 % of control; (dose: 60.0 mg/kg/injection, schedule: Q01DX005 (ip), vehicle: water) 140 % of control. In addition, the survivor count is 2 of 6 (dose: 114.7 mg/kg/injection, schedule: Q01DX009 (ip), vehicle: water); 3 of 6 and 6 of 6 (dose: 120.0 mg/kg/injection, schedule: Q01DX005 (ip), vehicle: water); 2 of 6 (dose: 124.0 mg/kg/injection, schedule: Q01DX009 (ip), vehicle: water); 3 of 6 (dose: 166.7 mg/kg/injection, schedule: Q01DX009 (ip), vehicle: water); 0 of 6 (dose: 191.2 mg/kg/injection, schedule: Q01DX009 (ip), vehicle: water); 5 of 6 under setting [5]. Besides, the survivor count (dose: 206.7 mg/kg/injection, schedule: Q01DX009 (ip), vehicle: water) is 0 of 6.
In the case of `Cc1cc2cc3c(=O)[nH]c(=O)cc-3n(CC(O)C(O)C(O)CO)c2cc1C` (stereo not drawn), the survivor count (dose: 200.0 mg/kg/injection, schedule: Q01DX009 (ip), vehicle: other) was 6 of 6.
On to `C1CCC2=NCCCN2CC1`, for which the survivor count under setting [6] is listed as 0 of 6.
For the compound `CC1(C)N=C(N)N=C(N)N1c1cccc(CNC(=O)Nc2cccc(S(=O)(=O)F)c2)c1`, the survivor count is, setting by setting: (dose: 44.0 mg/kg/injection, schedule: Q01DX009 (ip), vehicle: saline with Tween-80) 6 of 6; (dose: 67.0 mg/kg/injection, schedule: Q01DX009 (ip), vehicle: saline with Tween-80) 6 of 6; under setting [1], 6 of 6; under setting [4], 2 of 6; (dose: 150.0 mg/kg/injection, schedule: Q01DX009 (ip), vehicle: saline with Tween-80) 3 of 6; under setting [5], 0 of 6.
For the compound `[Cu+2].[O-]c1ccccc1C=NCC(O)CN=Cc1ccccc1[O-]` (stereo not drawn), the survivor count is on record as 4 of 6 (dose: 15.0 mg/kg/injection, schedule: Q01DX005 (ip), vehicle: saline with Tween-80); 0 of 6 (dose: 60.0 mg/kg/injection, schedule: Q01DX005 (ip), vehicle: saline with Tween-80); 0 of 6 (dose: 120.0 mg/kg/injection, schedule: Q01DX005 (ip), vehicle: saline with Tween-80); 0 of 6 (dose: 240.0 mg/kg/injection, schedule: Q01DX005 (ip), vehicle: saline with Tween-80).
`C=C1C(=O)OC2C1CCC1(C)CC(Br)C(=O)C(C)C21` (stereo not drawn): the T/C reads like this: (dose: 100.0 mg/kg/injection, schedule: Q04DX002 (ip), vehicle: saline with Tween-80) 130 % of control; under setting [7], 131 and 133 % of control; under setting [8], 129 % of control [5 of 6 alive]. For the same compound, under setting [8], the survivor count is listed as 2 of 6.
`Cc1nc(-c2ccccc2-n2cccc2)no1`: under setting [2], the survivor count is 2 of 6.
Consider `C/C(=N\NC(N)=Nc1ccccc1)c1ccc(Cl)c(Cl)c1`, for which the survivor count was 1 of 6 under setting [7] and 0 of 6 under setting [8].
Consider `CSc1noc(N)n1`, for which the survivor count by setting is: (dose: 100.0 mg/kg/injection, schedule: Q01DX005 (ip), vehicle: saline) 2 of 5; (dose: 200.0 mg/kg/injection, schedule: Q01DX005 (ip), vehicle: saline) 0 of 5.
With `O=[N+]([O-])c1ccc(CS(=O)(=O)c2cccs2)o1`, the survivor count (dose: 200.0 mg/kg/injection, schedule: Q01DX009 (ip), vehicle: suspension in saline) is 6 of 6.
Regarding `O=C1CC2C(C1Nc1ccccc1)C1C(=Nc3ccccc3)C(Nc3ccccc3)=CC1N2c1ccccc1` (stereo not drawn), the survivor count (dose: 60.0 mg/kg/injection, schedule: Q01DX005 (ip), vehicle: Klucel (hydroxypropylcellulose) (HPC)) is reported as 6 of 6; the survivor count (dose: 120.0 mg/kg/injection, schedule: Q01DX005 (ip), vehicle: Klucel (hydroxypropylcellulose) (HPC)) was 6 of 6; the survivor count (dose: 240.0 mg/kg/injection, schedule: Q01DX005 (ip), vehicle: Klucel (hydroxypropylcellulose) (HPC)) was 6 of 6.
